One assay addresses T1, Flag-IRF7 (human) (UniProt Q92985).
T1 sequence: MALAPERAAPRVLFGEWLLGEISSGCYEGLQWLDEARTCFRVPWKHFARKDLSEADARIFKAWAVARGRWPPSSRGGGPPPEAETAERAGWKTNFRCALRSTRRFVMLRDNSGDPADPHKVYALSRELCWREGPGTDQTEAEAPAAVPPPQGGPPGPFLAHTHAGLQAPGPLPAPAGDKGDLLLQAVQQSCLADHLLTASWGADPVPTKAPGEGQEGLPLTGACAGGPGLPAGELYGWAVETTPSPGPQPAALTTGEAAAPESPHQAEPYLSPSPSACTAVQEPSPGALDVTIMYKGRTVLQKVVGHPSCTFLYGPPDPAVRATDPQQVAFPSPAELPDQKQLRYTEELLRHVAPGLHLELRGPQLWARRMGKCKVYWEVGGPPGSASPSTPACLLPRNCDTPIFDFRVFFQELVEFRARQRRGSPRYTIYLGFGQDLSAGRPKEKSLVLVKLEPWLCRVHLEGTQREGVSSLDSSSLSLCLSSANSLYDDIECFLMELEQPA
In words: co-IP; HEK293 cells cotransfected with IRF7, an IKKε isoform and HA-ubiquitin; lysis in IP buffer (150 mM NaCl, 20 mM Tris pH 7.5, 0.1% Triton X-100, 10 mM N-ethylmaleimide); anti-Flag M2 affinity beads, 4 °C, 2 h; blot with anti-V5.

In assay [1] the target is Flag-IKKε isoform 2 (IKKε v2) (human). The description is as above.
Assay [2] has the same target. In words: co-IP; RD cells cotransfected with each Flag-IKKε isoform and HA-ubi; anti-Flag beads; endogenous IRF7 detected by anti-IRF7 antibody.

These are yes or no findings as the source states them, for the method shown. Binding seen in cells or lysates may run through a third protein. Binding can be weak; no strength is given. For part of these data: Where a sequence is shown, tags or fusion partners need not be part of it.

For the molecule “V5-IKKε isoform 2 (IKKε v2) (human) (enzyme)”, in the assay with Flag-IRF7 (human), the binding entry is listed as “binds”.

B1: V5-IRF7 (protein, UniProt Q92985 1-503)
chain: MALAPERAAPRVLFGEWLLGEISSGCYEGLQWLDEARTCFRVPWKHFARKDLSEADARIFKAWAVARGRWPPSSRGGGPPPEAETAERAGWKTNFRCALRSTRRFVMLRDNSGDPADPHKVYALSRELCWREGPGTDQTEAEAPAAVPPPQGGPPGPFLAHTHAGLQAPGPLPAPAGDKGDLLLQAVQQSCLADHLLTASWGADPVPTKAPGEGQEGLPLTGACAGGPGLPAGELYGWAVETTPSPGPQPAALTTGEAAAPESPHQAEPYLSPSPSACTAVQEPSPGALDVTIMYKGRTVLQKVVGHPSCTFLYGPPDPAVRATDPQQVAFPSPAELPDQKQLRYTEELLRHVAPGLHLELRGPQLWARRMGKCKVYWEVGGPPGSASPSTPACLLPRNCDTPIFDFRVFFQELVEFRARQRRGSPRYTIYLGFGQDLSAGRPKEKSLVLVKLEPWLCRVHLEGTQREGVSSLDSSSLSLCLSSANSLYDDIECFLMELEQPA
For the molecule B1, the binding result in assay [1] is listed as “binds”.

B2: endogenous IRF7 (protein, UniProt Q92985 1-503)
chain: MALAPERAAPRVLFGEWLLGEISSGCYEGLQWLDEARTCFRVPWKHFARKDLSEADARIFKAWAVARGRWPPSSRGGGPPPEAETAERAGWKTNFRCALRSTRRFVMLRDNSGDPADPHKVYALSRELCWREGPGTDQTEAEAPAAVPPPQGGPPGPFLAHTHAGLQAPGPLPAPAGDKGDLLLQAVQQSCLADHLLTASWGADPVPTKAPGEGQEGLPLTGACAGGPGLPAGELYGWAVETTPSPGPQPAALTTGEAAAPESPHQAEPYLSPSPSACTAVQEPSPGALDVTIMYKGRTVLQKVVGHPSCTFLYGPPDPAVRATDPQQVAFPSPAELPDQKQLRYTEELLRHVAPGLHLELRGPQLWARRMGKCKVYWEVGGPPGSASPSTPACLLPRNCDTPIFDFRVFFQELVEFRARQRRGSPRYTIYLGFGQDLSAGRPKEKSLVLVKLEPWLCRVHLEGTQREGVSSLDSSSLSLCLSSANSLYDDIECFLMELEQPA
Consider B2, for which the binding result in assay [2] is given as “binds”.

The values above are taken from paper PMC8172566.
